Reference: patent US20090029355A1, “Abnormalities of Phosphatase 2A (PP2A) for Diagnosis and Treatment of Alzheimer's Disease” (priority 2004, published 2009)
At least one compound was matched to its structure with a doubt left. Residues, ends and D or L forms follow the SMILES beside them.

Key:
Assay type in all cases: cell-based, human
[1] = system: PP2A gene expression in AD cells; assay: BK-stimulated PP2A gene expression by RTQ-PCR in Alzheimer's disease (AD) fibroblasts; conditions: 10 nM BK, about 10 min
[2] = system: Erk1/2 phosphorylation in AC cells; assay: Erk1/2 phosphorylation on Western blots in AC fibroblasts; conditions: for Erk1/2 phosphorylation after BK stimulation: about 10 nM BK
Method: (§1) After serum-starving overnight, cells are treated as such: 1) BK treatment for about 10 min, 2) pretreatment with about 10 nM OA for about 15 min followed by BK treatment and another dose of OA for about 10 min. Reactions are terminated, cells are lysed in a lysis buffer, and the extent of Erk1/2 phosphorylation and levels of the total Erk1/2 are determined using Western blots. After normalizing with signals of the total Erk1/2, the ratio of BK-stimulated Erk1/2 phosphorylation in the presence and absence of OA is calculated.
To stimulate MAP kinase phosphorylation, fibroblasts were cultured to approximately 90% confluence and treated with bradykinin (BK, 10 nM), a potent inflammation mediator, for about 5 min. or about 10 min. To test a possible involvement of PP2A or PP2B in regulation of MAP kinase phosphorylation, cells were pretreated with either okadiac acid (OA, about 10 nM) or FK506 (about 20 nM) for about 15 min followed by treatment with BK (about 10 nM) alone with another dose of okadiac acid or FK506 for about 10 min. A flask of cells for each cell line was treated with DMSO vehicle and used as controls. The treatment was terminated by removing the culture medium from the flask, rapidly rinsing cells with precooled 1×PBS, pH 7.5, and placing the flask or dry ice/ethanol. […]
(§2) Erk1/2 phosphorylation from different treatments was determined on Western blots using an anti-phospho-Erk1/2 antibody (Cell Signaling Technology), the total amount of Erk1/2 protein loaded on the SDS gel was determined by an anti-regular Erk1/2 antibody (Upstate Biotechnology), and was used to normalize the detected phospho-Erk1/2 signals.
(§3) (1) Quantitative PCR values for PP2A mRNA in each sample of 19 AC and 19 AD cell lines were normalized by those of GPDH in the same sample. […] The densitometric values for PP2A were normalized by those of annexin 11 and quantified with UN-SCAN-IT software (Silk Scientific, Inc.) (3) To assess Erk1/2 phosphorylation, ratios for phospho-Erk1/2 over those of the total Erk1/2 were calculated. […]

[3] = system: PP2A gene expression in AC cells; assay: BK-stimulated PP2A gene expression by RTQ-PCR in age-matched control (AC) fibroblasts; conditions: 10 nM BK, about 10 min
[4] = system: Erk1/2 phosphorylation in AD cells; assay: Erk1/2 phosphorylation on Western blots in AD fibroblasts; conditions: about 10 min
Method: as §1, with “calculated. […]” for “calculated.”
as §2, §3

| Compound | PP2A mRNA levels (normalized with GAPDH) after BK treatment [1] | PP2A mRNA levels (normalized with GAPDH) after BK treatment ([1]; listed as BK) | Erk1/2 phosphorylation after BK stimulation ([2]; about 5 min) | Erk1/2 phosphorylation after BK stimulation ([2]; about 10 min) | PP2A mRNA levels (normalized with GAPDH) after BK treatment [3] | PP2A mRNA levels (normalized with GAPDH) after BK treatment ([3]; listed as BK) | Erk1/2 phosphorylation after BK stimulation ([4]; about 10 nM BK) | BK-induced Erk1/2 phosphorylation in the presence of FK506 ([2]; about 20 nM FK506, about 10 nM BK, about 10 min) | BK-induced Erk1/2 phosphorylation prolongation in the presence of FK506 ([4]; about 20 nM FK506, about 10 nM BK) |
| --- | --- | --- | --- | --- | --- | --- | --- | --- | --- |
| NC(N)=NCCC[C@H](NC(=O)[C@H](Cc1ccccc1)NC(=O)[C@@H]1CCCN1C(=O)[C@H](CO)NC(=O)[C@H](Cc1ccccc1)NC(=O)CNC(=O)[C@@H]1CCCN1C(=O)[C@@H]1CCCN1C(=O)[C@@H](N)CCCN=C(N)N)C(=O)O [bradykinin] (H-RPPGFSPFR-OH) | absent | not in AD cells | increased | returned to the control level | markedly increases PP2A mRNA levels | upregulation of PP2A mRNA was observed | prolonged Erk1/2 phosphorylation |  |  |
| C=CC[C@@H]1/C=C(\C)C[C@H](C)C[C@H](OC)[C@H]2O[C@@](O)(C(=O)C(=O)N3CCCC[C@H]3C(=O)O[C@H](/C(C)=C/[C@@H]3CC[C@@H](O)[C@H](OC)C3)[C@H](C)[C@@H](O)CC1=O)[C@H](C)C[C@@H]2OC [FK506] |  |  |  |  |  |  |  | did not cause a significant increase | abolished |
